# Source: PubChem BioAssay AID493014 (National Center for Advancing Translational Sciences (NCATS), 2011)
# Hit rate of the full screen: of about 340,000 compounds, about 170 (0.05%) were called active. The shares of active, inactive and inconclusive entries below differ from those in the screen. The call rests on the fitted dose curve; in most records, active means well fitted inhibition curve with a large enough effect in the signal ratio, with a control signal flat (not every such curve was filed as active); inconclusive means small, poorly fitted or top-dose-only effect, or effect the other way, or a change in a side signal; inactive means flat fitted curve, though single readings scatter; the % refers to the signal ratio. Where the call is inconclusive, the potency comes from a doubtful curve fit.
# Test: qHTS Assay to Find Inhibitors of Chronic Active B-Cell Receptor Signaling;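 on activity change, negative = inhibition: plate controls were basal doxycycline-induced cells for no effect and cells given 10 µM MG132 for full effect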
# Conditions: ABC-DLBCL IkBa-CBG/CBR reporter, luminescence ratio (green luciferase fused to IkBa over red control in TMD8 lymphoma cells), 4 h; activity change, negative = inhibition: at 46.1 µM (top of the series)
# Method in brief: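 TMD8 ABC-DLBCL cells carrying doxycycline-inducible green luciferase fused to IkappaBalpha plus unfused red luciferase were exposed to compounds (up to 46 uM) for 4 hrs at 37C. Activity came from the overlap-corrected green/red luminescence ratio.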
# Potency means the concentration at half of the fitted maximal effect.
SMILES,"activity change, negative = inhibition",Potency
CCc1ccc(CN(C)C(=O)CCc2nnc(-c3ccc(-c4ccccc4)cc3)o2)nc1,inconclusive: -18.5%,–
CCC(=O)N1N=C(c2ccc(NS(C)(=O)=O)cc2)CC1c1ccc(C)cc1 (stereo not drawn),–,"inconclusive: 11.6 µM [falling, partial curve, poor fit]"
Cc1ncc(CO)c(CNc2ccc(-c3nc4ccccc4[nH]3)cc2)c1O,inactive: -1.97%,–
Cc1cc(C)nc(NS(=O)(=O)c2ccc(NC(=O)CN3C(=O)S/C(=C\c4ccccc4)C3=O)cc2)n1,–,"inconclusive: 16.4 µM [cytotoxic, single point]"
Cc1nc(-c2ccc(S(=O)(=O)N3CCN(Cc4ccccc4)CC3)s2)cs1,inactive: 0.347%,–
O=C(COc1ccc(/C=N/NC(=O)C(=O)N2CCCCC2)cc1)Nc1ccccc1Cl,–,"inconclusive: 10 µM [falling, partial curve]"
O=c1/c(=C/c2ccccn2)sc2nc3ccccc3n12,inconclusive: 2.4%,–
CCCCn1c(N2CCC(Cc3ccccc3)CC2)nc2c1c(=O)[nH]c(=O)n2C,inconclusive: -29.6%,–
CC(NC(=O)C(=O)N1CCOCC1)C(c1cccs1)N1CCN(c2ccccc2)CC1 (stereo not drawn),inactive: -1.46%,–
COc1ccccc1CNC(=O)/C(C#N)=C/c1ccc(OC)c(OC)c1OC,inactive: -24.5%,–
S=c1[nH]nc(-c2ccccc2)o1,–,"inconclusive: 35.5 µM [falling, single point]"
O=C(CN1C(=O)c2cccc3cccc1c23)NCc1cccnc1,inconclusive: -5.34%,–
Cc1ccc(N=C2NC(=O)CS2)c(C)c1,inconclusive: -0.382%,–
COc1ccc2[nH]c(CN3CCC(n4nccc4NC(=O)C4CC4)CC3)c(C)c2c1,inactive: 0.227%,–
CCOC(=O)c1ccc(NC(=O)CN2CCc3ccccc3C2)cc1,inconclusive: 0.0096%,–
CCOC(=O)/C(=N\Nc1ncnc2ccccc12)c1ccc(OC)cc1,inconclusive: -25.7%,–
CC1=C(CC(=O)c2ccccc2)C(=O)c2ccccc2C1=O,–,"inconclusive: 20 µM [falling, partial curve, poor fit]"
NC(=O)c1ccc(NC(=O)CCc2nc3ccccc3s2)cc1,inconclusive: -16.2%,–
O=C1c2ccccc2NC(c2ccc(-c3ccccc3F)o2)N1O (stereo not drawn),–,"inconclusive: 20.6 µM [falling, single point]"
Cc1cc(-c2ccc(N3CCOCC3)cc2)nc2ccccc12,inconclusive: 18.4%,–
O=c1oc2ccccc2c2c1C1O[C@](c3ccsc3)(Cc3ccccc31)O2,–,"inconclusive: 0.158 µM [falling, full curve, poor fit]"
Cc1noc(C(=O)Nc2cccc(O)c2)c1Cl,inconclusive: -23%,–
CC(C)n1c2ccccc2c2nc3ccccc3nc21,inactive: 10.5%,–
CCOC(=O)C1CCN(S(=O)(=O)c2ccc3c4c(cccc24)C(=O)N3CC)CC1,–,"inconclusive: 23.1 µM [falling, single point]"
C=CCNC(=S)N1CCN(CCN=CC2=C(O)CC(c3ccc(Cl)cc3)CC2=O)CC1 (stereo not drawn),–,"inconclusive: 3.55 µM [falling, partial curve, poor fit]"
COc1cc(NC(=O)CCc2nnc3ccc(N4CCN(c5cccc(OC)c5)CC4)nn23)cc(OC)c1,inactive: -2.42%,–

SMILES,"activity change, negative = inhibition",Potency
Cc1cccc(N2CC(C(=O)Nc3nnc(SCc4cccnc4)s3)CC2=O)c1 (stereo not drawn),inactive: 12.9%,–
N#C/C(=C(/O)CN1CCOCC1)c1nc2ccccc2s1,inactive: 0.144%,–
O=C(Nc1cc(=O)[nH]c2ncnn12)c1ccccc1Cl,inconclusive: -11.9%,–
COc1ccccc1NC(=O)CN1CCN(CC(=O)Nc2ccc3c(c2)OCO3)CC1,inactive: -17.9%,–
O=C(/C=C/c1ccc(F)cc1)NC(=S)N1CCCCC1c1cccnc1 (stereo not drawn),inconclusive: -6.34%,–
CC1=CC(=NOC(=O)c2cccc([N+](=O)[O-])c2)C=C(C)C1=O,–,"inconclusive: 20.6 µM [falling, partial curve]"
CCC1(c2ccc(F)cc2)NC(=O)N(CC(=O)c2cc(C)n(C3CC3)c2C)C1=O (stereo not drawn),inactive: -14.3%,–
COc1cccc(C2CC(=O)Nc3n[nH]c(-c4ccccc4)c32)c1OC (stereo not drawn),inconclusive: -8.26%,–
CC(=O)c1cccc(Nc2ncnc3ccc(Br)cc23)c1,inconclusive: -17.3%,–
O=CN1CCN(c2ncnc3c2nnn3Cc2c(F)cccc2Cl)CC1,inconclusive: 12.7%,–
COc1ccccc1Nc1nc(N)nc(CN2CCN(Cc3ccccc3)CC2)n1,inactive: -3.41%,–
Cc1nnc(N/N=C/c2ccc(Br)cc2)n1N,–,"inconclusive: 25.1 µM [falling, single point]"
COc1ccc(N(CC(=O)NCCSCc2ccc(Cl)cc2)S(C)(=O)=O)cc1Cl,inactive: -12.5%,–
Cc1cccc(NC(=O)COc2nsnc2N2CCOCC2)c1,inconclusive: -17.2%,–
CCCC(=O)N/C(N)=N/c1nc(C)c2ccccc2n1,–,"inconclusive: 5.62 µM [rising, single point]"
N#Cc1cnc(N)c(Br)c1,inconclusive: -3.05%,–
Cc1ccc(CC2CC(=O)N(C(Cc3ccccc3)C(=O)O)C2=O)cc1 (stereo not drawn),inconclusive: 10.2%,–
CC(CNC(=S)Nc1cc(F)cc(F)c1)CSc1ccc(Cl)cc1 (stereo not drawn),inconclusive: -10.4%,–
O=C(NCc1ccco1)c1cccc2c1C(=O)c1ccc(N3CCCC3)cc1S2(=O)=O,inactive: -0.852%,–
Cc1ccccc1CN(C)Cc1cc(=O)oc2c(C)c(C)ccc12,–,"inconclusive: 12.6 µM [rising, partial curve, poor fit]"
O=C(NCCC(=O)N(CCc1ccccc1)Cc1ccccc1)c1ccc([N+](=O)[O-])cc1,inactive: 0.677%,–
Cc1ccc(NC(=O)NNC(=O)c2snnc2C)cc1,–,"inconclusive: 15.8 µM [falling, single point]"
CCOc1ccccc1NC(=O)C(NCCc1ccc(OC)cc1)c1ccccc1 (stereo not drawn),inconclusive: 3.71%,–
CCOc1ccc(N(CC(=O)N/N=C/c2cc([N+](=O)[O-])ccc2Cl)S(C)(=O)=O)cc1,–,"inconclusive: 1.3 µM [falling, partial curve, poor fit]"
COc1cccc(C(=O)NC2CC3CCCC(C2)N3CC(=O)Nc2ccccc2C(F)(F)F)c1 (stereo not drawn),inconclusive: 0.604%,–
COc1ccc(CC(=O)Nc2nc3ccccc3s2)cc1S(=O)(=O)N1CCOCC1,inconclusive: -3.77%,–

SMILES,"activity change, negative = inhibition",Potency
Cc1ccc(C(c2c(C)[nH][nH]c2=O)c2c(C)[nH][nH]c2=O)cc1[N+](=O)[O-],inconclusive: -6.13%,–
CN(C)C(=O)c1ccc(Nc2nnc(-c3ccc(O)cc3)c3ccccc23)cc1,inconclusive: -11.7%,–
COc1cc(/C=N/NS(=O)(=O)c2ccc(C)cc2)ccc1OCc1ccc(C(=O)O)cc1,–,"inconclusive: 4.47 µM [rising, full curve, poor fit]"
CCC(Cc1ccccc1)NC(=O)CCn1cccc1 (stereo not drawn),inconclusive: -17.2%,–
Cc1cccc(C(=O)NC(=S)Nc2ccc(S(=O)(=O)N3CCN(C)CC3)cc2)c1,inactive: 2.25%,–
Cc1ccc(-c2noc(CCCC(=O)NC3CCCC3)n2)cc1,–,"inconclusive: 6.31 µM [activator, partial curve, poor fit]"
COC(=O)[C@@]12CCCCN1[C@H](c1ccc(-c3ccc(F)cc3)c(OC)c1)[C@@H]1C(=O)N(C)C(=O)[C@@H]12,inactive: 0.397%,–
CCOC(=O)c1c(NC(NC(C)=O)C(Cl)(Cl)Cl)sc2c1CCCC2 (stereo not drawn),inconclusive: 27%,–
CCOC(=O)NC(=O)CSc1nnnn1-c1ccc(Cl)cc1,inactive: 0.659%,–
CCc1noc(C)c1C(=O)Nc1nc2ccc(OC)cc2s1,–,"inconclusive: 23.1 µM [falling, partial curve]"
COc1ccccc1N=Nc1c(C)noc1C,–,"inconclusive: 11.2 µM [falling, partial curve, poor fit]"
O=C(Cc1ccc(Cl)cc1Cl)Nc1ccncc1Cl,inactive: 2.98%,–
CCC(C)N(C(=O)COC(=O)c1cc([N+](=O)[O-])ccc1N)C1CCS(=O)(=O)C1 (stereo not drawn),–,"inconclusive: 15.8 µM [falling, partial curve]"
CSc1ccc(NC(=O)NCCCN2CCC(Cc3ccccc3)CC2)cc1,–,"inconclusive: 35.5 µM [falling, partial curve, poor fit]"
CCCc1nc(SCc2cccnc2)c2c(=O)n(C)c(=O)n(C)c2n1,inconclusive: 8.72%,–
CS(=O)(=O)Cc1nc2ccccc2oc1=O,–,"inconclusive: 20 µM [falling, single point]"
Cc1ccc(NC(=O)/C=N/OCC(=O)NCc2ccccc2Cl)cc1,–,"inconclusive: 11.2 µM [falling, partial curve]"
CCOC(=O)CSc1nc2c(sc3cccc(F)c32)c(=O)n1Cc1ccc(OC)cc1,inconclusive: -0.87%,–
COc1cccc(C2CC3(CC(C)(C)NC(=S)N3)Oc3cc(O)ccc32)c1 (stereo not drawn),inconclusive: -9.15%,–
c1ccc(OCCOc2ncnc3ccccc23)cc1,inconclusive: -0.0752%,–
O=C(O)c1cc2n(n1)CCN(Cc1ccccc1Cl)C2=O,inconclusive: -3.63%,–
CC(=O)c1c(N2CCN(Cc3ccccc3)CC2)[nH]c(-c2ccccc2)nc1=S,inconclusive: 6.84%,–
CCCCNc1c(-c2ccc(SC3CCCCC3)c(OC)c2)nc2ccc(Cl)cn12,inconclusive: 25.5%,–
CCOc1ccc(OCc2ccc(C(=O)N/N=C(\C)c3ccccn3)cc2)cc1,inconclusive: -11.3%,–
CCOC(=O)c1sc2nc(C)c3c(c2c1N)CC(C)(C)OC3,–,"inconclusive: 3.66 µM [rising, full curve, poor fit]"
Cc1c(C(=O)N2CCOCC2)sc(NC(=O)c2ccccc2F)c1C#N,–,"inconclusive: 25.1 µM [falling, single point]"

# Ordered by heavy-atom count (high to low): part of the list above
SMILES,"activity change, negative = inhibition",Potency
CCOC(=O)CSc1nc2c(sc3cccc(F)c32)c(=O)n1Cc1ccc(OC)cc1,inconclusive: -0.87%,–
CCOc1ccc(OCc2ccc(C(=O)N/N=C(\C)c3ccccn3)cc2)cc1,inconclusive: -11.3%,–
O=C(O)c1cc2n(n1)CCN(Cc1ccccc1Cl)C2=O,inconclusive: -3.63%,–
